This test concerns the target kinase-deficient MAP4K4 variant (K54A in the text, K54R in the legend) (human) (UniProt O95819). As to the kind of experiment: co-IP; cotransfected cells lysed in IPB buffer (137 mM NaCl, 20 mM Tris pH 7.5, 1% NP-40, 10% glycerol); immunoprecipitation with anti-FLAG, anti-HA or anti-MAP4K4 antibody (control IgG), immunoblot. (In general: Immunoblotting shows a protein as a band on a membrane.)

By UniProt entry, the sequences of proteins in these tests, tags left out. Where a name states a change or a piece, a line headed by the entry shows the natural chain unless it says otherwise.
UniProt O95819: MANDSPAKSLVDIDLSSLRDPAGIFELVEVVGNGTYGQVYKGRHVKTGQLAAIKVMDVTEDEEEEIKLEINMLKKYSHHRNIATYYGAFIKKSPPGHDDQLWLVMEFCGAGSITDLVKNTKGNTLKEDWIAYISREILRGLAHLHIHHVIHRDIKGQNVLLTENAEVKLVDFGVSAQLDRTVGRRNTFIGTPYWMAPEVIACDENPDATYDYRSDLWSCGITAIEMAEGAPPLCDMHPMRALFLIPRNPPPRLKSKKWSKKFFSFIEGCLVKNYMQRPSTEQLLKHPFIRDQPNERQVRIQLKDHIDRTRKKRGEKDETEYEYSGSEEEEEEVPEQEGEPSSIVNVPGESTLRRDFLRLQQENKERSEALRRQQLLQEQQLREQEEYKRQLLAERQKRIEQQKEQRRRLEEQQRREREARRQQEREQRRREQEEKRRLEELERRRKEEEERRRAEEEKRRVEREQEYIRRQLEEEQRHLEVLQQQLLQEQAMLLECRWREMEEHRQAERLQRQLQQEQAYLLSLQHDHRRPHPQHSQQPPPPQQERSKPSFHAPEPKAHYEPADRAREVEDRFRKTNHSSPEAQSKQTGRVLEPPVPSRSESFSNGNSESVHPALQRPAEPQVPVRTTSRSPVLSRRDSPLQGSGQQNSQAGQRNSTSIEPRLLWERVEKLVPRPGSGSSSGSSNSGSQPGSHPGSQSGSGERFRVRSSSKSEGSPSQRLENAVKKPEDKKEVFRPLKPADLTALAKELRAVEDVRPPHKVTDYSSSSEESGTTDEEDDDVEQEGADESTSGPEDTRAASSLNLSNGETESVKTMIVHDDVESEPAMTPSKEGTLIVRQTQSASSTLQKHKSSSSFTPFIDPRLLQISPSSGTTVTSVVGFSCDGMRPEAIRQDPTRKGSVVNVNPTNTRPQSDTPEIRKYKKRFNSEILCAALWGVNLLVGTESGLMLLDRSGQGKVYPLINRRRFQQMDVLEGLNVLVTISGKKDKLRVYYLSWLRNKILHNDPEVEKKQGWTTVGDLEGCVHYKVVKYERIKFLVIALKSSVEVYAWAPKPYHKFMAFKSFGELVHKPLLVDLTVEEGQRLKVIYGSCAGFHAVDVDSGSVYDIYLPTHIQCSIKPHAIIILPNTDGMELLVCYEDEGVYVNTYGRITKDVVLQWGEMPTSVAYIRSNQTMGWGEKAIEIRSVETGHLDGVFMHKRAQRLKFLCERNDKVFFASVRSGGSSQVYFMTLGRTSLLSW
UniProt Q14289: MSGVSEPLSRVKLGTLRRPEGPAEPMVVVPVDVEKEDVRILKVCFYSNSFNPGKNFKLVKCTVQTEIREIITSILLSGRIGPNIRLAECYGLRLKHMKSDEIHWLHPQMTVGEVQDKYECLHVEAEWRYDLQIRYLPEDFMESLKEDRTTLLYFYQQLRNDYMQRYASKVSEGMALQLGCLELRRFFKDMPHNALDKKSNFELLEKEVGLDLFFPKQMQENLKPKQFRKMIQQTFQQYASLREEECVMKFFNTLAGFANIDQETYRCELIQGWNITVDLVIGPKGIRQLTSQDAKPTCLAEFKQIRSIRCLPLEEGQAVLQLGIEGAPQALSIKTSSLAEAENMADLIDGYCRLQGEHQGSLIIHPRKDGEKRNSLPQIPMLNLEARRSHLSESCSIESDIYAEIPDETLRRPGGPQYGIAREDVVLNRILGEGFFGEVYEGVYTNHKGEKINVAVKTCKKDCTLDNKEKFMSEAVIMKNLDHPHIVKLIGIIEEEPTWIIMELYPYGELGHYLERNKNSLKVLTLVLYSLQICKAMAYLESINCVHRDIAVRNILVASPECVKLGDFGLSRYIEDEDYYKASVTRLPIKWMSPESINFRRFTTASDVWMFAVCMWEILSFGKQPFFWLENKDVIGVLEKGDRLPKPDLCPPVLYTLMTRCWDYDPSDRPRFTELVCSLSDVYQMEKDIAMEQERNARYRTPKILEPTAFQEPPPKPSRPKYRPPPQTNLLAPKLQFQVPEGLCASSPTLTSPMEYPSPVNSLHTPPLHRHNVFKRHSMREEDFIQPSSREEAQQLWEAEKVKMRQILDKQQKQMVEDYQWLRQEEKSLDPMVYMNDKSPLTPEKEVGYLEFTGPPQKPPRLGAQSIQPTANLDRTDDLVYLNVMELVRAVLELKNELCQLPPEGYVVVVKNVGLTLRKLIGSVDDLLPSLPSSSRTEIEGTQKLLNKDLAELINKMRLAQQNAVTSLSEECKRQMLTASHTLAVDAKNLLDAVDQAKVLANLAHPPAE

Results are given in words; binding and its absence hold for the method and conditions named. Binding seen in cells or lysates may run through a third protein. Binding calls can cover weak binding; strength is not graded here.

For “FLAG-tagged Pyk2 (wild type) (from UniProt Q14289 1-1009)”, the binding result was “binds”.

Values taken from article PMC3791834.
